# Data as given in PubChem BioAssay AID1508588 (Peter MacCallum Cancer Centre, 2020)
# Purpose: 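Knock-downs boosting vemurafenib effects on melanoma cell growth or lactate release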 (primary screen)
# Cells: human WM266.4 melanoma cells (BRAF V600 mutant)
# Reagent: siRNA pool against human genes, 40 nM
# Duration: 96 h from transfection to read-out
# Treatment: vemurafenib 300 nM (about IC25), added 48 h after transfection, for 48 h; comparison arm got DMSO vehicle only
# Read-out: 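Ratios to non-targeting siRNA for cell gain, counted as DAPI nuclei after minus before drug and averaged over two replicates, and for absorbance-read medium lactate per cell; both binned into fold-change classes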
# Reading the numbers: cell gain with vemurafenib: higher = more cell gain than with non-targeting siRNA; lactate per cell with vemurafenib: higher = more lactate made per cell
# Rule for the call: 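a knock-down counts as enhancing when its fold-change classes with vehicle and with vemurafenib, taken together, show a stronger drug effect on cell gain or lactate per cell; exact class pairs not stated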
# Calls: active = enhances vemurafenib effect; inactive = no enhancement seen
# The deposit covers about 18,000 reagents; below is a random part of them. Over the whole deposit, 790 (4.4%) got an active call. 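Calls rest on a combination of fold-change classes in drug and vehicle arms, not all shown here.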 Entries without a mark were called inactive. A reagent listed more than once was tested more than once; the source does not tell the runs apart. No sequences are given here.
gene,PubChem SID,cell gain with vemurafenib,lactate per cell with vemurafenib
SLC19A4P,SID152148554,0.26,0.57
MAP4K3 (mitogen-activated protein kinase kinase kinase kinase 3),SID135620707,0.3,0.9
CLEC14A (C-type lectin domain containing 14A),SID152156469,0.57 (active),0.49
DNAJB6 (DnaJ heat shock protein family (Hsp40) member B6),SID134317261,0.36,0.75
DCAF12L2 (DDB1 and CUL4 associated factor 12 like 2),SID152148303,0.73,0.52
TNPO1 (transportin 1),SID152154553,0.74,0.57
DPF3 (double PHD fingers 3),SID135622404,0.44,0.68
UBAP1 (ubiquitin associated protein 1),SID134321409,0.87 (active),0.63
IAPP (islet amyloid polypeptide),SID135621444,0.6,0.28
CRCP (CGRP receptor component),SID135625062,0.86,0.98
GOPC (golgi associated PDZ and coiled-coil motif containing),SID152154895,0.9,1.19
MNS1 (meiosis specific nuclear structural 1),SID134324813,0.66 (active),0
F11R (F11 receptor),SID152152532,0.94,1.21
NHSL3 (NHS like 3),SID152153692,0.95,1.26
ACOT6 (acyl-CoA thioesterase 6),SID135625419,0.69,1.51
BBS7 (Bardet-Biedl syndrome 7),SID134317575,0.36,0.88
TDRD6 (tudor domain containing 6),SID152156591,0.85,1.18
CEP89 (centrosomal protein 89),SID135624176,0.27,1.93
KCNIP4 (potassium voltage-gated channel interacting protein 4),SID152152659,0.25,1.17
NOX3 (NADPH oxidase 3),SID134318065,0.48,1.56
TEX44 (testis expressed 44),SID135623293,0.06,0.74
TTLL1 (TTL family tubulin polyglutamylase complex subunit L1),SID152152400,0.47,1.19
U2SURP (U2 snRNP associated SURP domain containing),SID135624389,0.22 (active),0.4
OSBP2 (oxysterol binding protein 2),SID135621710,0.54 (active),0.06
GPR19 (G protein-coupled receptor 19),SID134310995,0.49 (active),0.34
SLC49A3,SID134322453,0.63,0.97
FGL2 (fibrinogen like 2),SID152151694,0.41,1.18
TUBGCP4 (tubulin gamma complex component 4),SID134323992,0.52,0.84
LYRM9 (LYR motif containing 9),SID135624945,0.33,1.08
LMF1 (lipase maturation factor 1),SID135622694,0.75,0.32
NUP133 (nucleoporin 133),SID135622504,0.09 (active),0.57
TAF2 (TATA-box binding protein associated factor 2),SID152147467,0.15,1.46
"HLA-B (major histocompatibility complex, class I, B)",SID152155786,0.57,0.58
OR6B3 (olfactory receptor family 6 subfamily B member 3),SID134329990,0.41,1.6
PDGFRL (platelet derived growth factor receptor like),SID134315029,0.47,1.38
AKT1S1 (AKT1 substrate 1),SID152155376,1,1.27
PAMR1,SID135622649,0.48,1.46
GBP1 (guanylate binding protein 1),SID135620944,0.7,0.8
MAGEA6 (MAGE family member A6),SID135623692,0.98,0.92
OR2F2 (olfactory receptor family 2 subfamily F member 2),SID152155929,0.73,0.64
PCDH8 (protocadherin 8),SID134315694,0.61,0.75
ZFP1 (ZFP1 zinc finger protein),SID152151262,0.35,0.52
YAP1 (Yes1 associated transcriptional regulator),SID134316489,0.76,0.55
NFATC1 (nuclear factor of activated T cells 1),SID135620711,0.8,0.84
RNH1 (ribonuclease/angiogenin inhibitor 1),SID152154322,0.68,0.82
RPL28 (ribosomal protein L28),SID134315503,0.12,1.61
ELK3 (ETS transcription factor ELK3),SID134314893,0.7,0.63
NLRP6 (NLR family pyrin domain containing 6),SID134319380,0.46,1.46
LTBP3 (latent transforming growth factor beta binding protein 3),SID134318321,0.04,2.27
RCBTB1 (RCC1 and BTB domain containing protein 1),SID152150328,0.85,0.46
STXBP4 (syntaxin binding protein 4),SID135623425,1.21,1.12
KANK4 (KN motif and ankyrin repeat domains 4),SID152148890,0.24,1.92
PRRC2A (proline rich coiled-coil 2A),SID152156461,0.63,0.62
"PNPLA2 (patatin like domain 2, triacylglycerol lipase)",SID152150721,0.67,1.06
TRMT112 (tRNA methyltransferase activator subunit 11-2),SID135624058,0.32,0.88
NUDT16 (nudix hydrolase 16),SID134320332,0.62,0.9
GIT1 (GIT ArfGAP 1),SID152152159,0.5,0.78
"CAPG (capping actin protein, gelsolin like)",SID152154253,0.32,0.6
ZBTB9 (zinc finger and BTB domain containing 9),SID152155133,0.83 (active),0.42
PNMA8A (PNMA family member 8A),SID152152436,0.45,0.84
ABCG2 (ATP binding cassette subfamily G member 2 (JR blood group)),SID152150733,1.18,0.79
AVEN (apoptosis and caspase activation inhibitor),SID152156525,0.54,1.27
"CNST (consortin, connexin sorting protein)",SID134321131,0.6,0.6
RNASEH2B (ribonuclease H2 subunit B),SID134318528,0.83,0.94
TNIK (TRAF2 and NCK interacting kinase),SID152153870,0.51,1.28
MAGEB1 (MAGE family member B1),SID135622107,0.96,0.68
NLRP5 (NLR family pyrin domain containing 5),SID152154282,0.28,0.55
VASN (vasorin),SID152155549,0.59,0.89
IGFBPL1 (insulin like growth factor binding protein like 1),SID135624533,0.64,1.23
"ALKBH6 (alkB homolog 6, nucleotide demethylase)",SID135622866,0.77,0.64
PRDX6 (peroxiredoxin 6),SID135623693,0.93,0.78
IFNB1 (interferon beta 1),SID135623798,0.86,0.5
KLHL36 (kelch like family member 36),SID135623520,0.74,0.94
DDX17 (DEAD-box helicase 17),SID135622532,0.8,1.06
PPP1R17 (protein phosphatase 1 regulatory subunit 17),SID56479279,0.23,0.78
RPUSD1 (RNA pseudouridine synthase domain containing 1),SID152148772,0.95,0.6
LDLRAD2 (low density lipoprotein receptor class A domain containing 2),SID135624703,0.23,2.92
"AFDN (afadin, adherens junction formation factor)",SID135623906,0.27,1.42
GNPTAB,SID134328934,0.35,1.58
PRC1 (protein regulator of cytokinesis 1),SID134323276,0,0.85
RHAG (Rh associated glycoprotein),SID152148093,0.37 (active),0.49
ATOH7 (atonal bHLH transcription factor 7),SID134313867,0.73,0.98
OR51G2 (olfactory receptor family 51 subfamily G member 2),SID134329888,0.79,1.07
FMOD (fibromodulin),SID135622168,0.45,1.64
OR13C2 (olfactory receptor family 13 subfamily C member 2),SID135624829,0.51,1.52
SPAG17 (sperm associated antigen 17),SID134329454,0.88,0.68
MAGEA11 (MAGE family member A11),SID135623304,0.54,1.16
DNAJC5B (DnaJ heat shock protein family (Hsp40) member C5 beta),SID135623524,0.93,1
RASGRF1 (Ras protein specific guanine nucleotide releasing factor 1),SID134314081,0.83,0.64
CCNH (cyclin H),SID135620639,0.87,0.93
HTR3B (5-hydroxytryptamine receptor 3B),SID134311623,0.5,1.01
HTR3B (5-hydroxytryptamine receptor 3B),SID134311623,0.21,1.09
ARHGDIA (Rho GDP dissociation inhibitor alpha),SID134320253,0.86,0.79
CHCHD3 (coiled-coil-helix-coiled-coil-helix domain containing 3),SID152152505,0.98,1.06
CPLX3 (complexin 3),SID152149529,0.89,0.97
PDZD9 (PDZ domain containing 9),SID134322217,0.32,1.19
ZIC2 (Zic family zinc finger 2),SID134321438,1.02,0.88
TMEM70 (transmembrane protein 70),SID152150630,0.62,0.83
GLIPR1L1 (GLIPR1 like 1),SID152146888,0.59,0.72
KIR3DP1,SID135625641,0.77,0.78
BRME1 (break repair meiotic recombinase recruitment factor 1),SID134322567,0.68,2
"APCS (amyloid P component, serum)",SID135622148,0.84,0.84
PHF19 (PHD finger protein 19),SID135624540,1.03,0.95
KCNH4 (potassium voltage-gated channel subfamily H member 4),SID134311652,0.77,0.77
"PIP4P2 (phosphatidylinositol-4,5-bisphosphate 4-phosphatase 2)",SID134318015,0.75,0.98
ISLR (immunoglobulin superfamily containing leucine rich repeat),SID134321654,0.55,1.25
TTC23 (tetratricopeptide repeat domain 23),SID152149751,0.51,1.45
